# Data as given in patent publication US11529319B2, “Methods and compositions for treating neurological conditions” (priority 2017, dated 2022).
# Entries after “also recorded” stand apart in the source; their conditions may differ.
# Experiments:
# Mef2c-het mice = assay: Morris water maze (spatial learning and memory); type: in vivo, mouse; settings: 3-month treatment
# Text: Mef2c heterozygous knockout (Mef2c-het) mice were created by crossing mice carrying the conventional exon 2-deleted allele of Mef2c (Mef2c^Δ2) with their WT littermates. All procedures for maintaining and using these mice were approved by the Institutional Animal Care and Use Committee (IACUC) at the Sanford Burnham Prebys Medical Discovery Institute. In this study, only male mice were used for the behavioral assays to insure uniformity (either with or without drug treatment). Chronic treatment with memantine, NitroSynapsin (both at 4.6 μmol/kg body weight) or vehicle (PBS) was administered via i.p. injection, twice a day for at least 3 months, starting at ˜2.5 weeks of age. This age was chosen because mice are still juveniles and thus treatment could begin in human at an equivalent stage.
# We tested spatial reference learning and memory using a version of the conventional Morris water maze. The mice were trained to swim to a platform 14 cm in diameter and submerged 1.5 cm beneath the surface of the water. The platform was invisible to the mice while swimming. […] Mice were given 4 trials a day for as many days as necessary to reach the criterion (<20 s mean escape latency). Retention of spatial training was assessed 24 h after the last training trial. Both probe trials consisted of a 60-s free swim in the pool without the platform. […]
# Tsc2+/- mice = assay: Fear conditioning test; type: in vivo, mouse; settings: two-and-a-half-day treatment
# Text: To determine the effects of eNMDAR antagonists on the brain histology of Tsc2^+/− mice, quantitative confocal immunohistochemistry was used to analyze coronal brain slices from 3-month-old wild-type (WT) and Tsc2^+/− mice that had been treated for two and a half days with vehicle, memantine or NitroSynapsin. Tsc2+/− mice on the C57Bl/6J background received via the intraperitoneal route either vehicle or a loading dose of 92 μmol/kg of memantine or NitroSynapsin, followed by 4.6 μmol/kg of drug twice daily for two-and-a-half-days, with the last dose 3 hours prior to the behavioral training session (for a total of five drug injections). This dosing regimen yields an effective concentration of drug at NMDARs in the brain of 1-10 μM.
# Fear conditioning tests were performed on three-month-old Tsc2^+/+ and Tsc2^+/− mice to explore the effects of eNMDAR antagonists on anxiety, and learning and memory deficits in Tsc2^+/− mice. Vehicle, memantine or NitroSynapsin were administered for two and a half days, with the last dose of drug occurring 3-hours prior to the first training session. […] Freezing time of three-month-old WT and Tsc2^+/− transgenic mice treated with vehicle, memantine or NitroSynapsin in fear-conditioning trials. […] Values are mean+s.e.m. (n=7-12 mice per group). […]
SMILES,swimming speed during training phase (Mef2c-het mice),conditioned fear responses (freezing in training context and novel context + cue) (Tsc2+/- mice)
CCC12CC3(N)CC(CC)(C1)CC(O[N+](=O)[O-])(C3)C2 [NitroSynapsin],neither Mef2c heterozygosity nor NitroSynapsin treatment affected swimming speed; also recorded: not significantly different,unaffected by genotype or drugs
"CC12CC3CC(C)(C1)CC(N)(C3)C2 [memantine, reference compound]",–,unaffected by genotype or drugs
